# Source: PubChem BioAssay AID1487 (National Center for Advancing Translational Sciences (NCATS), 2009)
# Some of the results follow. The main result of the screen is listed elsewhere. These columns were measured beside it and carry no call. The list favours compounds with an active or inconclusive main result. The note in brackets gives the kind of curve behind each potency; many fits are weak.
# Assay: qHTS Assay for Modulators of Lamin A Splicing
# Conditions: HeLa LMNA splicing GFP/RFP minigene ratio, 48 h
# Outline: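 S3 HeLa cells stably expressing lamin A-EGFP splicing minigene plus DsRed2, 600 cells/well, 48 h compound exposure at 37C. Laser-scanning cytometry; analysed as GFP (500-530 nm)/RFP (575-640 nm) total intensity ratio; 0.5% DMSO vehicle.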
# [1] = measured here: GFP splicing reporter channel
# [2] = measured here: RFP viability control channel
SMILES,AC50 [1],AC50 [2]
Cc1cn2c(=O)cc(COC(=O)c3cccc(NC(=O)COc4ccccc4Cl)c3)nc2s1,"0.0141 µM [rising, full curve, poor fit]",–
COc1ccc(NC(=O)CSc2nnc(C3CC3)n2C)cc1,"5.01 µM [rising, partial curve, poor fit]",–
CCOC(=O)c1ccccc1NC(=O)N1CCc2c(sc(C)c2CC)C1c1ccccc1 (stereo not given),–,"11.2 µM [rising, single point]"
Cc1ccc(Cl)cc1N1CCN(C(=O)c2cnc(N3CCOCC3)c3ccccc23)CC1,"11.2 µM [falling, partial curve]","12.6 µM [falling, partial curve, poor fit]"
CC(C)Cn1c(O)c(/C=C2\C=NN=C2c2ccccc2)sc1=S,–,"10 µM [rising, partial curve]"
C=CCn1c(COc2ccc(F)cc2)nnc1SCC(=O)N1CC(=O)Nc2ccccc21,–,"14.1 µM [rising, single point]"
C=CCNCCCCOc1ccccc1-c1ccccc1,"0.141 µM [rising, full curve, poor fit]",–
CC(=O)c1ccc(C(C)(C)c2ccc(C(C)=O)s2)s1,–,"20 µM [rising, single point]"
COc1cc(/C=N/NC(=O)c2csc3c2CCCC3)cc(OC)c1O,–,"35.5 µM [rising, single point]"
CCOC(=O)C1CCN(c2ncnc3c2c(-c2ccccc2)cn3-c2cccc(C)c2)CC1,"0.355 µM [falling, full curve, poor fit]",–
CCc1ccc(OCC(=O)N2c3ccccc3CCc3ccccc32)cc1,"10 µM [falling, partial curve, poor fit]","3.55 µM [falling, partial curve, poor fit]"
CCN1C(=O)/C(=C2/Sc3ccccc3N2CCCS(=O)(=O)O)SC1=S,"35.5 µM [rising, single point]","35.5 µM [rising, single point]"
COc1ccc(C2=CC(c3ccc(F)cc3)n3ncc(C(=O)Nc4ccc(C)cc4)c3N2)cc1 (stereo not given),–,"12.6 µM [rising, partial curve]"
CC(=O)Nc1ccc2nc(C3CC3)n(Cc3ccc(Cl)cc3)c(=O)c2c1,–,"10 µM [falling, partial curve, poor fit]"
O=C(Cn1ccn(-c2ccc(F)c(F)c2)c(=O)c1=O)Nc1ccccc1F,"15.8 µM [rising, partial curve, poor fit]","17.8 µM [rising, partial curve, poor fit]"
O=C(CCCOc1ccccc1)NC(=S)Nc1ccccc1,"1.26 µM [falling, partial curve, poor fit]","2.51 µM [falling, partial curve, poor fit]"
Cc1cc(C(=O)CN2C(=O)c3ccccc3C2=O)c(C)n1Cc1cccs1,–,"35.5 µM [rising, single point]"
COCCn1c(C)cc(C(=O)CSc2nnc(-c3cccnc3)n2-c2ccccc2F)c1C,–,"0.0141 µM [falling, full curve, poor fit]"
CCOC(=O)c1scc(-c2ccccc2)c1S(=O)(=O)Nc1ccccc1F,–,"20 µM [rising, partial curve, poor fit]"
CC1CC(C)CN(C(=O)c2cc3cc(Br)cc(Br)c3o2)C1 (stereo not given),–,"25.1 µM [rising, single point]"
CC1(C)CCC(NC(=O)[C@@H](N)CCC(=O)O)CC1,–,"0.00112 µM [falling, full curve, poor fit]"
O=C1NC2(CCCCC2)C(=O)N1CCS(=O)(=O)Oc1ccc(Br)cc1,"35.5 µM [falling, single point]","17.8 µM [falling, partial curve]"
Cc1nc(-c2ccc(Cl)cc2)sc1CCNC(=O)C(=O)Nc1ccc(F)cc1F,–,"5.62 µM [rising, single point]"
Cc1cccc[n+]1CC(=O)/C=C1\N(C)c2ccccc2C1(C)C,"11.2 µM [rising, partial curve, poor fit]","10 µM [rising, partial curve]"
COCCn1c(=O)c(-c2ccc(F)cc2)nc2cnc(Nc3cccc(OC)c3)nc21,–,"8.91 µM [falling, partial curve]"
COC(=O)c1cccc(NC(=O)/C=C/c2ccc3c(c2)OCO3)c1,–,"7.08 µM [rising, partial curve]"
COc1cc(/C=C2/C(=O)ON=C2C)ccc1OCc1cccc(F)c1,–,"3.55 µM [falling, partial curve]"
COc1cccc(NC(=O)NCc2ccc3c(c2)CCN3C(=O)c2ccccc2)c1,"0.398 µM [falling, full curve, poor fit]",–

# In the list so far, 2 contain bromine:
SMILES,AC50 [1],AC50 [2]
CC1CC(C)CN(C(=O)c2cc3cc(Br)cc(Br)c3o2)C1 (stereo not given),–,"25.1 µM [rising, single point]"
O=C1NC2(CCCCC2)C(=O)N1CCS(=O)(=O)Oc1ccc(Br)cc1,"35.5 µM [falling, single point]","17.8 µM [falling, partial curve]"

# Further records follow.

SMILES,AC50 [1],AC50 [2]
Nc1ncnc2c1ncn2C1CC(O)C(CO)O1 (stereo not given),–,"0.501 µM [falling, single point]"
COc1ccc(N2CCN(Cc3nc(N)nc(Nc4ccccc4OC)n3)CC2)cc1,–,"35.5 µM [rising, single point]"
O=C(CSc1n[nH]c(=O)n1C1CC1)Nc1cc(Cl)ccc1Oc1ccccc1,"6.31 µM [rising, partial curve, poor fit]","12.6 µM [rising, partial curve]"
Cc1ccc(NC(=O)CC2C(=O)N(Cc3ccccc3)C(=S)N2NC(=O)c2ccccc2)c(C)c1 (stereo not given),–,"35.5 µM [rising, single point]"
C=CCNCCCCOc1ccc(Br)cc1C,"17.8 µM [rising, partial curve]","0.02 µM [rising, full curve, poor fit]"
COc1ccc(/C=N/NC(=S)SC)cc1OC,–,"3.98 µM [rising, full curve]"
O=C(c1cc(Br)c(Br)s1)N1CCN(C/C=C/c2ccccc2)CC1,"35.5 µM [rising, single point]","31.6 µM [rising, single point]"
COc1ccccc1CNS(=O)(=O)c1cc(C(=O)Nc2cccc(C(F)(F)F)c2)ccc1F,"35.5 µM [falling, single point]","12.6 µM [falling, single point]"
CCOc1ccc(OCC)c(NC(=O)CN2CCN(c3cccc(C)c3)C(C)C2)c1 (stereo not given),"15.8 µM [rising, single point]","31.6 µM [rising, single point]"
C=CCN1C(=O)N/C(=C/c2ccc(N3CCOCC3)o2)C1=O,"15.8 µM [rising, single point]","35.5 µM [rising, single point]"
Cc1cc(C(=O)CSc2nc(N)cc(=O)[nH]2)c(C)n1CCc1ccc(Cl)cc1,–,"35.5 µM [rising, single point]"
Cc1ccc([N+](=O)[O-])cc1NC(=O)CN1CCC(C)CC1,"35.5 µM [rising, single point]",–
COc1ccc(OC)c(C(=O)CSc2nnc(Cc3cccs3)n2CCc2ccccc2)c1,"22.4 µM [falling, single point]","25.1 µM [falling, single point]"
CC1CCCC(NC(=O)C2CCCN2S(=O)(=O)c2cccc3nsnc23)C1C (stereo not given),–,"35.5 µM [rising, single point]"
COc1ccc(/C=N/NC(=O)c2cc(-c3cccn3C)n[nH]2)cc1OC,–,"11.2 µM [rising, partial curve, poor fit]"
COc1ccc(N2CCN(C(=O)c3cccc(N4C(=O)C5CC=CC(C)C5C4=O)c3)CC2)cc1 (stereo not given),"12.6 µM [falling, partial curve, poor fit]","0.562 µM [falling, full curve, poor fit]"
C1OCOCO1,"3.16 µM [rising, single point]",–
Cc1ccc(OCCn2c(Br)nc3c2c(=O)n(C)c(=O)n3C)cc1,"3.55 µM [rising, full curve, poor fit]","2.82 µM [rising, full curve]"
CCN(C(=S)Nc1cccnc1)c1cccc2ccccc12,–,"0.0316 µM [falling, full curve, poor fit]"
O=C(Nc1ccc(F)c(F)c1)c1ccc2c(c1)OCO2,–,"35.5 µM [rising, single point]"
CCO[C@H]1O[C@@H]([C@H](COCc2ccccc2)OCc2ccccc2)[C@@H](OCc2ccccc2)[C@H]1O,"0.00282 µM [falling, full curve, poor fit]","0.00316 µM [falling, full curve, poor fit]"
O=C(Nc1ccc2nc(SCC(=O)N3CCCc4ccccc43)sc2c1)c1cccc(F)c1,"35.5 µM [falling, partial curve]",–
Nc1ccccc1C(=O)/C=C/c1ccc2c(c1)OCO2,–,"10 µM [rising, partial curve]"
CC(C)[C@H](NS(=O)(=O)c1ccccc1)C(=O)OCC(=O)N1N=C(c2ccc(Cl)cc2)CC1c1ccco1 (stereo not given in full),–,"15.8 µM [rising, partial curve]"
CCOc1ccc2c(c1)-c1c(ssc1=S)C(C)(C)N2C(=O)CSC1=NCCS1,"10 µM [rising, partial curve, poor fit]","14.1 µM [rising, partial curve, poor fit]"
N#Cc1c(SCc2cccc(Cl)c2)sc(C(=O)c2ccccc2)c1N,"12.6 µM [rising, partial curve]","14.1 µM [rising, single point]"
CC(=O)Nc1cn(-c2ccccc2)nc1-c1ccccc1,"17.8 µM [falling, partial curve, poor fit]","2.82 µM [falling, partial curve]"
